Results deposited as PubChem BioAssay AID1259425 (University of Nebraska Medical Center, 2018)
Purpose: 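Seek colon cancer weak points whose silencing resembles KSR1 loss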 (primary screen). Cell system: HCT116 human colon cancer cells. Knock-down reagent: siRNA pool against human genes, 50 nM siRNA. Measured: 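After 50 nM siRNA pool, branched-DNA assay measures six marker transcripts per well, minus blank, normalised to the geometric mean of two housekeeping transcripts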. Scale: BNIP3L mRNA: higher = more BNIP3L transcript after knockdown.
This is a random part of about 14,000 reagents. The numbers tell different reagents against one gene apart. Further read-outs or replicates are left out here. The record does not give: the time to read-out.

SERPINB8 (serpin family B member 8) showed BNIP3L mRNA, set 1 = 0.0993.
Knock-down of SH2D2A (SH2 domain containing 2A) resulted in: BNIP3L mRNA, set 1 = 0.177.
After knock-down of GLCE (glucuronic acid epimerase) the results were BNIP3L mRNA, set 1 = 0.127.
Against MT1L (metallothionein 1L (pseudogene)) the deposit lists BNIP3L mRNA, set 1 = 0.0703.
Against SRRT (serrate, RNA effector molecule), the entry reads BNIP3L mRNA, set 1 = 0.159.
Against ALKBH6 (alkB homolog 6, nucleotide demethylase), the values are BNIP3L mRNA, set 1 = 0.1.
With knock-down of PDCD4 (programmed cell death 4), the screen gave BNIP3L mRNA, set 1 = 0.08.
PRADC1 (protease associated domain containing 1) showed BNIP3L mRNA, set 1 = 0.134.
With knock-down of TMEM237 (transmembrane protein 237), the screen gave BNIP3L mRNA, set 1 = 0.0235.
With knock-down of PCDHGB6 (protocadherin gamma subfamily B, 6), the record shows BNIP3L mRNA, set 1 = 0.0708.
MAT2B (methionine adenosyltransferase 2 non-catalytic beta subunit) gave BNIP3L mRNA, set 1 = 0.219.
Against CCAR1 (cell division cycle and apoptosis regulator 1), the entry reads BNIP3L mRNA, set 1 = 0.077.

A run of entries taken from the entries so far, as a working copy:
SH2D2A (SH2 domain containing 2A) | BNIP3L mRNA, set 1 = 0.177
GLCE (glucuronic acid epimerase) | BNIP3L mRNA, set 1 = 0.127

The listing continues:
Knock-down of HDAC5 (histone deacetylase 5) resulted in: BNIP3L mRNA, set 1 = 0.0897.
Against DGKZ (diacylglycerol kinase zeta), the entry reads BNIP3L mRNA, set 1 = 0.246.
Against NXPH1 (neurexophilin 1), the entry reads BNIP3L mRNA, set 1 = 0.076.
Against DPM2 (dolichyl-phosphate mannosyltransferase subunit 2, regulatory), the values are BNIP3L mRNA, set 1 = 0.113.
With knock-down of MOS (MOS proto-oncogene, serine/threonine kinase) the results were BNIP3L mRNA, set 1 = 0.0632.
NSF (N-ethylmaleimide sensitive factor, vesicle fusing ATPase) showed BNIP3L mRNA, set 1 = 0.159.
After knock-down of LACTB2 (lactamase beta 2), the record shows BNIP3L mRNA, set 1 = 0.0675.
With knock-down of KALRN (kalirin RhoGEF kinase) #1, the screen gave BNIP3L mRNA, set 1 = 0.14.
Knock-down of KALRN (kalirin RhoGEF kinase) #2 gave: BNIP3L mRNA, set 1 = 0.088.
For VPS11 (VPS11 core subunit of CORVET and HOPS complexes), the values are BNIP3L mRNA, set 1 = 0.214.
EDA (ectodysplasin A) scored BNIP3L mRNA, set 1 = 0.048.
Against COA4 (cytochrome c oxidase assembly factor 4 homolog), the values are BNIP3L mRNA, set 1 = 0.103.
Depletion of NBAS (NBAS subunit of NRZ tethering complex) came out at: BNIP3L mRNA, set 1 = 0.203.
Knock-down of INTS11 (integrator complex subunit 11) came out at: BNIP3L mRNA, set 1 = 0.0824.
Depletion of HLA-DRB5 (major histocompatibility complex, class II, DR beta 5) came out at: BNIP3L mRNA, set 1 = 0.0684.
PHPT1 (phosphohistidine phosphatase 1) scored BNIP3L mRNA, set 1 = 0.0714.
BARD1 (BRCA1 associated RING domain 1) showed BNIP3L mRNA, set 1 = 0.0424.
DAB2 (DAB adaptor protein 2) scored BNIP3L mRNA, set 1 = 0.113.
After knock-down of OR8G1 (olfactory receptor family 8 subfamily G member 1), the screen gave BNIP3L mRNA, set 1 = 0.0814.
Depletion of CCL13 (C-C motif chemokine ligand 13) gave: BNIP3L mRNA, set 1 = 0.0736.
With knock-down of INSR (insulin receptor), the screen gave BNIP3L mRNA, set 1 = 0.0814.
Silencing of NETO2 (neuropilin and tolloid like 2) resulted in: BNIP3L mRNA, set 1 = 0.112.
For NPSR1-AS1 (NPSR1 antisense RNA 1) the deposit lists BNIP3L mRNA, set 1 = 0.114.
Against CHORDC1 (cysteine and histidine rich domain containing 1), the values are BNIP3L mRNA, set 1 = 0.0876.
